According to PubChem BioAssay AID2551 (National Center for Advancing Translational Sciences (NCATS), 2010):
Screen size: about 310,000 compounds; about 17,000 (5.5%) were called active. Inconclusive results, whose numbers are uncertain, are shown with a selection of clear calls. Calls follow the shape of the dose curve; as a rule, active = well fitted inhibition curve with a large enough effect; inconclusive = small, poorly fitted or top-dose-only effect, or effect the other way; inactive = no such curve, though single readings can be large or run the other way. Potencies of inconclusive entries are doubtful fits and often do not repeat.

Protein sequences, listed by entry. Tags and fused reporters are not part of them. Lines headed by an entry give the natural chain unless they say otherwise; changes in a name come on top.
UniProt P51450: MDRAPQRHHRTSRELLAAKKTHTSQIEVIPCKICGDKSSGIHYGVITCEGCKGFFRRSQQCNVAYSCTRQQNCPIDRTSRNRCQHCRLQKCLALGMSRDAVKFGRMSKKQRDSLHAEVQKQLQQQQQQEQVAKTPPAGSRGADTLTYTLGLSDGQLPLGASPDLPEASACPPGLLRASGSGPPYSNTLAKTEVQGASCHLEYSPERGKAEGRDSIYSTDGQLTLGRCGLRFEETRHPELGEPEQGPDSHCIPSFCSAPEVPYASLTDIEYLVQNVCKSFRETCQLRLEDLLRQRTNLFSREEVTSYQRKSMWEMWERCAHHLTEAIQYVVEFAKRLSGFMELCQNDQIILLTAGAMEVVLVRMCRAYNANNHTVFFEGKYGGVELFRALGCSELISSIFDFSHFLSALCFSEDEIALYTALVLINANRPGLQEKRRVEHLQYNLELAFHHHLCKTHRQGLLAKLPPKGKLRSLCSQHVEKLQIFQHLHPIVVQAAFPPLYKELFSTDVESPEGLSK

target: Nuclear receptor ROR-gamma (Mus musculus) (UniProt P51450); assay: qHTS for inhibitors of ROR gamma transcriptional activity; details: Drosophila S2 Gal4-RORgamma UAS-luciferase reporter, 20 h; activity change, negative = inhibition: at 53.6 µM (top of the series); also: nearly all actives have a fitted effect of over 60% in size
Procedure, shortened: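 Read-out: Photinus luciferase luminescence; inhibitors lower reporter signal. Insect Schneider cells with Gal4-ROR gamma fusion under metallothionein promoter, UAS reporter; 700 uM final copper sulfate induction, 20 hr, ambient temperature.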
% is scaled to controls: 0 for no effect and ±100 for the full control effect; potency is read from the fitted curve at half-maximal effect.

Structure (SMILES) | Potency | activity change, negative = inhibition
Cc1cc(Cl)ccc1NC(=S)N1CCN(Cc2ccccc2)CC1 | active: 11.2 µM | 
CC(=O)c1ccc(NC(=O)Cc2ccsc2)cc1 |  | inactive: -2.9%
COc1ccc(C)c2sc(NC(=O)C3=COCCO3)nc12 | inconclusive: 12.6 µM [activator, single point] | 
NS(=O)(=O)c1ccc(CNC(=O)/C=C/c2ccco2)cc1 |  | inactive: 7.07%
C#Cc1ccc([C@@H]2C=C(C(=O)N3CCN(Cc4ccccc4)CC3)O[C@H](OCC)[C@H]2CCCO)cc1 | inconclusive: 15.8 µM [activator, partial curve] | 
COc1ccc(CCNC(=O)c2ccc(-c3ccc([N+](=O)[O-])cc3)o2)cc1OC | inconclusive: 15.8 µM [activator, partial curve] | 
CCOc1ccccc1-n1c(SCC(=O)N2CCCC2)nnc1-c1ccc(O)cc1 | inconclusive: 35.5 µM [activator, single point] | 
COc1ccccc1-n1c(O)c(C=NCc2ccccn2)c2ccccc2c1=O |  | inactive: -40.8%
COc1cccc(NC(=S)N/N=C2\CC3CCC2(C)C3(C)C)c1 (stereo not given) | active: 0.562 µM | 
Cc1ccc(Nc2nc3ccccc3s2)c(C)c1 | inconclusive: 28.2 µM [inhibitor, single point] | 
CC(=O)c1cccc(Nc2nc(-c3cccnc3)cs2)c1 | inconclusive: 11.2 µM [activator, partial curve] | 
O=[N+]([O-])c1ccc(NCCOc2ccccc2Cl)nc1 | inconclusive: 25.1 µM [activator, single point] | 
CCc1ccc(C2CC(c3ccccc3)n3ncnc3N2)cc1 (stereo not given) | active: 17.8 µM | 
CC1(C)CC(=O)C(N=Nc2ccc(S(=O)(=O)N3CCOCC3)cc2)=C(O)C1 | inconclusive: 0.0708 µM [activator, full curve] | 
O=C(N/N=C/C=C/c1ccccc1)c1cnccn1 | inconclusive: 1.78 µM [inhibitor, partial curve] | 
O=C(Nc1ccccc1O)c1cccc(NC(=O)c2ccco2)c1 | inconclusive: 6.31 µM [activator, partial curve] | 
COc1ccc(OCC(=O)N2N=C(C)CC2(O)C(F)(F)F)cc1 (stereo not given) | active: 6.31 µM | 
Cc1ccc(C(=O)NNC(=O)CCC(=O)NCc2ccccc2)cc1Br |  | inactive: -21.1%
O=C(Nn1c(SCc2cccc([N+](=O)[O-])c2)nc2ccccc2c1=O)c1ccccc1 | inconclusive: 5.01 µM [activator, partial curve] | 
COc1ccccc1NC(=O)CSc1c2c(nc3ccccc13)CCC2 | inconclusive: 20 µM [activator, single point] | 
COc1ccc(N2CCN(C(=S)Nc3cc(C)cc(C)c3)CC2)cc1 | inconclusive: 1.41 µM [inhibitor, full curve] | 
O=C(NNC1=C(C(=O)C(F)(F)F)CCC1)c1cccc(O)c1 | active: 5.01 µM | 
CCOc1ccc(C(=O)NC(=S)N2CCN(c3ccc(C(F)(F)F)cc3[N+](=O)[O-])CC2)cc1 | active: 0.316 µM | 
Cc1nn(-c2ccccc2)c2sc(C(=O)N(CC(=O)NC(C)(C)C)Cc3ccco3)cc12 |  | inactive: -16.7%

Structure (SMILES) | Potency | activity change, negative = inhibition
COc1ccc(C(=O)Nc2ccc3c(c2)OCCO3)cc1Br | inconclusive: 1.12 µM [activator, full curve, poor fit] | 
O=C(Nc1ccc(N2CCCC2)cc1)c1cccc(-c2cc3ccccc3oc2=O)c1 |  | inactive: 25.6%
Cc1ccc(NC2=C/C(=N\S(=O)(=O)c3cccs3)c3ccccc3C2=O)c(C)c1 | inconclusive: 2.24 µM [inhibitor, partial curve, poor fit] | 
O=C(NCc1n[nH]c(=S)n1-c1ccc(Br)cc1)c1cccs1 | inconclusive: 11.2 µM [inhibitor, single point] | 
COC(=O)C1=C(C)NC(=O)/C1=C\c1cc(C)n(-c2ccccc2F)c1C |  | inactive: -4.88%
COc1cccc(C(=O)Nc2ccccc2F)c1 |  | inactive: -6.19%
Cc1cccc2cc(C#N)c(NCCNC(=O)COc3ccccc3)nc12 | inconclusive: 35.5 µM [inhibitor, single point] | 
CC1=NN(C(=O)c2ccc(Cn3nc(C)cc3C)o2)C(O)(C(F)(F)F)C1 (stereo not given) | active: 6.31 µM | 
COc1ccc(CNC(=S)Nc2ccccc2Cl)cc1 | active: 17.8 µM | 
Cc1c(Br)c([N+](=O)[O-])nn1CCCC(=O)N1CCN(c2ccccc2)CC1 | inconclusive: 11.2 µM [activator, partial curve, poor fit] | 
CCn1c(=O)cc(OCC(=O)NCc2ccc(C)o2)c2ccccc21 | active: 14.1 µM | 
C=C(C)c1ccc(C(C)(C)NC(=O)N(Cc2ccccc2)Cc2ccco2)cc1 | inconclusive: 15.8 µM [activator, partial curve] | 
CCN(CC)c1ccc2cc(C(=O)Nc3ccccn3)c(=O)oc2c1 | inconclusive: 15.8 µM [activator, single point] | 
COC(=O)Nc1ncc(CN2CCC(c3ccccc3)CC2)s1 |  | inactive: 32.8%
COCCCN(C(=S)Nc1cc(Cl)cc(Cl)c1)C(C)c1ccccn1 (stereo not given) | active: 7.08 µM | 
O=C(/C=C/c1cccc([N+](=O)[O-])c1)Nc1cccc(NC(=O)c2ccco2)c1 | inconclusive: 17.8 µM [activator, partial curve] | 
COC(=O)c1[nH]c2cc(OC)ccc2c1NC(=O)CN1CCOCC1 | inconclusive: 0.891 µM [activator, partial curve] | 
Cc1ccc2cccc(Oc3ncnc4scc(-c5ccccc5)c34)c2n1 | inconclusive: 2.51 µM [activator, full curve, poor fit] | 
O=[N+]([O-])c1cc(/C=N/Nc2nc(N3CCOCC3)nc(N3CCOCC3)n2)ccc1Cl | inconclusive: 0.251 µM [activator, full curve, poor fit] | 
O=C(O)c1cccc(-c2ccc(/C=N/NC(=O)c3cccnc3)o2)c1 |  | inactive: -26.2%
O=C(NCC1OCCc2ccccc21)c1ccc(NC(=O)c2ccc(Cl)cc2Cl)cc1 (stereo not given) | inconclusive: 17.8 µM [inhibitor, single point] | 
COCCCNC(=O)COc1ccc2oc3c(c2c1)CCCC3 |  | inactive: 8.22%
CCCCCCCCCCCCCCCC(=O)NC(C)C |  | inactive: -4.18%
Cc1ccc(OCC(=O)c2ccc(Cl)s2)c([N+](=O)[O-])n1 | inconclusive: 35.5 µM [inhibitor, single point] | 

Given as tab-separated lines: 15 of the compounds above
Structure (SMILES)	Potency	activity change, negative = inhibition
COc1cccc(NC(=S)N/N=C2\CC3CCC2(C)C3(C)C)c1 (stereo not given)	active: 0.562 µM	
Cc1ccc(Nc2nc3ccccc3s2)c(C)c1	inconclusive: 28.2 µM [inhibitor, single point]	
CC(=O)c1cccc(Nc2nc(-c3cccnc3)cs2)c1	inconclusive: 11.2 µM [activator, partial curve]	
O=[N+]([O-])c1ccc(NCCOc2ccccc2Cl)nc1	inconclusive: 25.1 µM [activator, single point]	
CCc1ccc(C2CC(c3ccccc3)n3ncnc3N2)cc1 (stereo not given)	active: 17.8 µM	
CC1(C)CC(=O)C(N=Nc2ccc(S(=O)(=O)N3CCOCC3)cc2)=C(O)C1	inconclusive: 0.0708 µM [activator, full curve]	
O=C(N/N=C/C=C/c1ccccc1)c1cnccn1	inconclusive: 1.78 µM [inhibitor, partial curve]	
O=C(Nc1ccccc1O)c1cccc(NC(=O)c2ccco2)c1	inconclusive: 6.31 µM [activator, partial curve]	
COc1ccc(OCC(=O)N2N=C(C)CC2(O)C(F)(F)F)cc1 (stereo not given)	active: 6.31 µM	
Cc1ccc(C(=O)NNC(=O)CCC(=O)NCc2ccccc2)cc1Br		inactive: -21.1%
O=C(Nn1c(SCc2cccc([N+](=O)[O-])c2)nc2ccccc2c1=O)c1ccccc1	inconclusive: 5.01 µM [activator, partial curve]	
COc1ccccc1NC(=O)CSc1c2c(nc3ccccc13)CCC2	inconclusive: 20 µM [activator, single point]	
COc1ccc(N2CCN(C(=S)Nc3cc(C)cc(C)c3)CC2)cc1	inconclusive: 1.41 µM [inhibitor, full curve]	
O=C(NNC1=C(C(=O)C(F)(F)F)CCC1)c1cccc(O)c1	active: 5.01 µM	
CCOc1ccc(C(=O)NC(=S)N2CCN(c3ccc(C(F)(F)F)cc3[N+](=O)[O-])CC2)cc1	active: 0.316 µM	

(listing goes on)

Structure (SMILES) | Potency | activity change, negative = inhibition
Cc1scc(C(=O)N2CCN(c3ccc(Cl)cc3)CC2)c1C | inconclusive: 12.6 µM [activator, single point] | 
CCC(NC(=O)c1ccc([N+](=O)[O-])cc1[N+](=O)[O-])c1ccccc1 (stereo not given) |  | inactive: -15.5%
CCOc1ccc(/C=N/Nc2ccccn2)cc1 | active: 11.2 µM | 
COc1cc(Br)cc(/C=N/c2ncn[nH]2)c1O | inconclusive: 11.2 µM [inhibitor, single point] | 
N=c1ncn(Cc2ccccc2)c2nc(SCCOc3ccccc3)[nH]c12 | inconclusive: 35.5 µM [activator, single point] | 
COc1ccccc1NC(=O)CN1CCN(CC(=O)Nc2ccc(Cl)c(C(F)(F)F)c2)CC1 | inconclusive: 15.8 µM [activator, single point] | 
Cc1ccc(C(=O)NC(=S)Nc2ccc(N3CCOCC3)cc2)cc1 | active: 6.31 µM | 
COc1ccc2nc(C)cc(SCC(=O)N/N=C/c3c(OC)ccc4ccccc34)c2c1 | inconclusive: 1.58 µM [inhibitor, single point] | 
Cc1cccc(OCCCC(=O)Nc2ccc(S(=O)(=O)Nc3nccs3)cc2)c1C | inconclusive: 35.5 µM [activator, single point] | 
Cc1ccc(O)c(-c2cc(-c3ccccc3F)[nH]n2)c1 | inconclusive: 12.6 µM [inhibitor, partial curve, poor fit] | 
COCC(=O)NC1(c2nnnn2CCOC(=O)Nc2ccc(Cl)cc2)CCCCC1 | inconclusive: 12.6 µM [activator, partial curve] | 
CCN(Cc1ccccc1)C(=O)c1ccc(NC(=O)c2ccc(OC)cc2)cc1 | inconclusive: 11.2 µM [activator, partial curve, poor fit] | 
Cc1nc2ccccc2cc1OCc1ccc(Cl)cc1 | inconclusive: 2 µM [activator, partial curve, poor fit] | 
O=C(CN1CCC(n2nnc3cc(F)ccc32)CC1)NCc1ccco1 | inconclusive: 1.58 µM [inhibitor, partial curve, poor fit] | 
CC(=O)Nc1cccc(NC(=O)c2ccccc2OCc2ccccc2)c1 | inconclusive: 20 µM [activator, single point] | 
CC(=O)Oc1ccc(N2C(=O)C3C4C=CC(O4)C3C2=O)cc1 (stereo not given) | inconclusive: 35.5 µM [inhibitor, single point] | 
COc1ccc(CNc2ncnc3ccc(-c4ccc(N(C)C)cc4)cc23)c(OC)c1 | inconclusive: 35.5 µM [activator, single point] | 
CC1=C(C(=O)OCc2ccccc2)C(c2ccc(C(C)(C)C)cc2)NC(=O)N1CCCCCC(=O)O (stereo not given) | inconclusive: 31.6 µM [activator, single point] | 
CSc1ccc(OC2CCCCC2NS(=O)(=O)c2ccc(Cl)cc2)cc1 (stereo not given) | inconclusive: 11.2 µM [activator, partial curve] | 
COc1ccccc1NC(=O)c1ccc2c(c1)C(=O)N(c1ccccc1OC)C2=O | inconclusive: 22.4 µM [activator, partial curve] | 
COc1ccc(OC)c(CNC(=O)CCN2C(=O)COc3ccccc32)c1 |  | inactive: -2.12%
O=C(CSc1cn(Cc2ccccc2)c2ccccc12)Nc1nccs1 | inconclusive: 3.98 µM [activator, single point] | 
